# Measured values as given in PubChem BioAssay AID1347076 (National Center for Advancing Translational Sciences (NCATS), 2019).
# In all, about 400,000 compounds went through this assay and about 13,000 (3.2%) were called active. The call rests on the fitted dose curve; in most records, active means well fitted cell-killing curve with a large enough effect; inconclusive means small, poorly fitted or top-dose-only effect, or effect the other way; inactive means flat fitted curve, though single readings scatter. The inconclusive results got no clear call from the source. Where the call is inconclusive, the potency comes from a doubtful curve fit.
# Test: qHTS assay for MDR1-selective chemotherapeutics: Primary screen using the drug-selected MDR subline cells KB-V1; further: nearly all actives have a fitted effect of over 60% in size
# Details: KB-V1 MDR cells viability, CellTiter-Glo, 72 h; series mostly up to 46.1 µM
# Method in brief: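 KB-V1, DMEM (no phenol red) + 10% FBS; cpd pin-transferred, titration series; 72 h, 37 degrees C; CellTiter-Glo, luminescence. Data normalized, curve-fit.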
# Potency means the concentration at half of the fitted maximal effect.
row,SMILES,Potency
1,CCOc1cc(NS(=O)(=O)c2ccc(OC)cc2)c(OCC)cc1NC(C)=O,"inconclusive: 5.8 µM [cytotoxic, partial curve]"
